Laboratory results reported in PMC10666356.
Results are given in words; binding and its absence hold for the method and conditions named. Binding seen in cells or lysates may run through a third protein. Some entries that bind do so weakly or less than the wild type. For part of these data: Tags and fused reporters may be left off the sequences shown.

The chains behind the UniProt entries cited, without tags or fusion partners. Where a name states a change or a piece, a line headed by the entry shows the natural chain unless it says otherwise.
UniProt P01106: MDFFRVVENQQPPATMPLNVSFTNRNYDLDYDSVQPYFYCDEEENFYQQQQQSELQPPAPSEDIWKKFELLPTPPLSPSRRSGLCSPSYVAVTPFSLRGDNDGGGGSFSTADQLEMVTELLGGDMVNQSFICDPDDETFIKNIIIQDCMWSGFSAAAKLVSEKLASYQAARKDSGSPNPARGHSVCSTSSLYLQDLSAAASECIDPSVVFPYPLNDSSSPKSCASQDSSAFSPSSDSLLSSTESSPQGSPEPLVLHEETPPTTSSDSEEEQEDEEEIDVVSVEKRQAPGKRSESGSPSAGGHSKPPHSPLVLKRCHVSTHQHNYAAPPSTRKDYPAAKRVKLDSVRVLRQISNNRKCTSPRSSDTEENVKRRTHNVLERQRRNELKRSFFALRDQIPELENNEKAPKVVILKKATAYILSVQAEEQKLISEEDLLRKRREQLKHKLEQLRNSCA

Columns and labels:
[1] = molecular target: T1, Flag-tagged NONO, wild type, expressed in AGS cells (human) (UniProt Q15233); assay: co-IP; AGS cells transfected with HA-tagged and Flag-tagged constructs of NONO and c-Myc (Fig. S3b); western blot
T1 sequence: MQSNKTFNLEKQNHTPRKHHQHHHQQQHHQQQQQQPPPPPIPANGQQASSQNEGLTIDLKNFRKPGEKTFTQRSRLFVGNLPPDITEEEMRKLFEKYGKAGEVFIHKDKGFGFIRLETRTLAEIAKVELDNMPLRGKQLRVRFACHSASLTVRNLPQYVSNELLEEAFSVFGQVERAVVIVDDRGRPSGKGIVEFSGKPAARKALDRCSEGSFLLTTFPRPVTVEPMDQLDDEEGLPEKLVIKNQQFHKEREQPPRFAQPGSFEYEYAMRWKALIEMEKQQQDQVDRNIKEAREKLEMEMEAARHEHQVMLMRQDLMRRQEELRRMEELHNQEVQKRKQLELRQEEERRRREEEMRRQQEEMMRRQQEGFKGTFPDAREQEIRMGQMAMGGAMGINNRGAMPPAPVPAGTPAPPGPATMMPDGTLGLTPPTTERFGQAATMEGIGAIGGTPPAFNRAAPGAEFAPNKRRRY

[2] = molecular target: T2, NONO in BiFC vector pBiFC-VN173 (human) (UniProt Q15233); assay: split reporter; NONO in pBiFC-VN173 and c-Myc in pBiFC-VC155 co-transfected into AGS cells for 24 h; confocal microscopy; cells stably transfected with mock, circ-hnRNPU, sh-Scb or sh-circ-hnRNPU #1 (signal decreased or increased)
T2 sequence: T1 sequence

[3] = molecular target: T1, Flag-tagged NONO, wild type, expressed in AGS cells (human); assay: co-IP; AGS cells transfected with Flag-tagged WT or mNLS NONO; the legend names 'RIP and western blot'; c-Myc protein detected by western blot

“HA-tagged c-Myc expressed in AGS cells (from UniProt P01106-2 1-454)” was tested. Which binding [1] did it give?
Its binding is “binds”.

With “c-Myc in BiFC vector pBiFC-VC155 (from UniProt P01106-2 1-454)” as the substance, how does the binding [2] read?
Its binding is “binds”.

Which binding [3] does the source give for “c-Myc protein in AGS cells (from UniProt P01106 1-454)” here?
The binding was “binds”.
